## Screening data, single-dose tests

Amino acid sequences for entries named in this document (tags omitted). Residues count along the entry.
UniProt P9WPC5, whole entry: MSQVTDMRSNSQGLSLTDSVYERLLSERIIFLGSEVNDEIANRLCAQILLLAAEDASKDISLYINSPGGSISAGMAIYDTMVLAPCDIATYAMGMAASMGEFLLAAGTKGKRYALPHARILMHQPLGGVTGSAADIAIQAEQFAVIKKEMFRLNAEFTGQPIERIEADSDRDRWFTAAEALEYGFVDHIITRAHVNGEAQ
UniProt P9WPC3, whole entry partner: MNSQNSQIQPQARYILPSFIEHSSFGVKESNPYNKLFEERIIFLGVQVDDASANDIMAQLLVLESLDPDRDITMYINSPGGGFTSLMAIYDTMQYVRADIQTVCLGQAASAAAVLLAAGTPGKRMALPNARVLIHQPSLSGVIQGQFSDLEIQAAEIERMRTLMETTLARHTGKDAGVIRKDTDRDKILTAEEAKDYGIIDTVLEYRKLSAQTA
UniProt Q8IDJ8, 1-583: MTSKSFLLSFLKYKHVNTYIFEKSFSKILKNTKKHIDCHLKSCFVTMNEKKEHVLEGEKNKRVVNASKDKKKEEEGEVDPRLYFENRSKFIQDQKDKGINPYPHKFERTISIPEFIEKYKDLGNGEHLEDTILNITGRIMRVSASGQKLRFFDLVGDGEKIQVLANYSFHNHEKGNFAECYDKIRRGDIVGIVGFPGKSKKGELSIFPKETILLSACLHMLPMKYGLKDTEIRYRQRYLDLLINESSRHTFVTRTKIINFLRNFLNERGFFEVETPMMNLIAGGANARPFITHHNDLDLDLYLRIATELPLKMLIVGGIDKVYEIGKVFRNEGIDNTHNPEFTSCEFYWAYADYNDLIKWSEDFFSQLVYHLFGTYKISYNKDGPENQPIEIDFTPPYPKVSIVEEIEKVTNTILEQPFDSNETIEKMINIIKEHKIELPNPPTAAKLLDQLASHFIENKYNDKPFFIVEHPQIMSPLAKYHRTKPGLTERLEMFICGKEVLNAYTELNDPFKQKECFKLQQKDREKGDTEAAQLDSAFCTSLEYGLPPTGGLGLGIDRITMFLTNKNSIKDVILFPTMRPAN
UniProt P9WFT3, whole entry: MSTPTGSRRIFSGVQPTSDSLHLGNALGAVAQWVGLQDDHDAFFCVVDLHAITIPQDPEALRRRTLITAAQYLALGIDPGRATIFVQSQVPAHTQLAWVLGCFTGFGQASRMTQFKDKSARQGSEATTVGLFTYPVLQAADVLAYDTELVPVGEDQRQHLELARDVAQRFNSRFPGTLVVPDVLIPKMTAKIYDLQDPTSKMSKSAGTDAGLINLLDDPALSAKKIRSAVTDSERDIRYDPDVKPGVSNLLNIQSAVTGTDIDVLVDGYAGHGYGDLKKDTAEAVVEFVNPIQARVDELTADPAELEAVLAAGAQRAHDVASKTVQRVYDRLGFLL
UniProt A4I591, 1-473: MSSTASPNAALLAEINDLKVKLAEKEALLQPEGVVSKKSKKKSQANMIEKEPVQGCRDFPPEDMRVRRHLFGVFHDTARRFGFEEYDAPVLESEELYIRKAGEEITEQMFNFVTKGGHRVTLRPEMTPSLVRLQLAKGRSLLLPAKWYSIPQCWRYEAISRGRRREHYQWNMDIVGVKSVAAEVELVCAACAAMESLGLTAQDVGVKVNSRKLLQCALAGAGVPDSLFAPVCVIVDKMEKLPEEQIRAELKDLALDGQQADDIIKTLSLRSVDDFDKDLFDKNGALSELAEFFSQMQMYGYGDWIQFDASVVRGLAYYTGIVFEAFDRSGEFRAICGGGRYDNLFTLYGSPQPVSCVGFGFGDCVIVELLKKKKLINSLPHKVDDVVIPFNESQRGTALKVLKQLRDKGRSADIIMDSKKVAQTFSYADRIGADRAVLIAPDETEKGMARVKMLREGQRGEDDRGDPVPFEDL
UniProt Q4DA54, 1-478: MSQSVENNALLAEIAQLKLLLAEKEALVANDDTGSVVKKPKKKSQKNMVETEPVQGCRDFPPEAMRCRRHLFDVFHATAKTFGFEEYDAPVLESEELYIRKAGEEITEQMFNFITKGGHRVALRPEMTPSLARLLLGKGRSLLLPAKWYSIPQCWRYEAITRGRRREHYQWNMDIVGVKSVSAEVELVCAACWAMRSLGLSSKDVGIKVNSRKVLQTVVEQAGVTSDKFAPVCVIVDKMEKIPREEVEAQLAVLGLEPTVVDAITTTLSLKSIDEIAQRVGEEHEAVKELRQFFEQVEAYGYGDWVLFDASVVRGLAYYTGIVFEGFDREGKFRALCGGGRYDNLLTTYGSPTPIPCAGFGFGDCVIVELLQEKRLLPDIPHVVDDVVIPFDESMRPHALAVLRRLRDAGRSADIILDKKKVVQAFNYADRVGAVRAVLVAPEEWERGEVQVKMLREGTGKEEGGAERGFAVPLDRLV

ClpP1P2: 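Protease assay of ClpP1P2, read by the AMC dye that it sets free. Target: ClpP1P2, Mycobacterium tuberculosis (UniProt P9WPC5 and UniProt P9WPC3). Compounds at 50 µM. Higher reads as stronger inhibition, judged from the few compounds that gave an IC50. Most other retested compounds had strongly negative values. About 69,000 compounds were tested under these conditions; 0.015% (about 10) showed 50% or more at least once.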
PfKRS1: 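Enzyme assay of the cytosolic lysyl-tRNA synthetase in 384-well plates, read by luminescence. Target: Lysine-tRNA ligase, Plasmodium falciparum 3D7 (UniProt Q8IDJ8). Tested at 30 µM. Direction is inferred from only a few compounds that gave an IC50; most scored high, so higher reads as stronger inhibition. About 69,000 compounds were tested under these conditions; 0.071% (about 49) showed 50% or more at least once.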
MtTrpRS: 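Tryptophan-tRNA ligase, Mycobacterium tuberculosis (UniProt P9WFT3). Enzyme assay of tryptophanyl-tRNA synthetase; the read-out is not stated. Compounds at 10 µM. Higher most likely means stronger inhibition; the record gives no direction and few retests gave an IC50. Of about 65,000 compounds tested this way, about 64 (0.098%) reached 50% or more in at least one test.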
LiHisRS: 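Enzyme assay of histidyl-tRNA synthetase; the read-out is not stated. Target: Histidine-tRNA ligase, Leishmania infantum (UniProt A4I591). Concentration: 30 µM. Direction is inferred from retests: higher values go with stronger inhibition. The assay is labelled LdHisRS but filed under L. infantum. Of about 69,000 compounds tested this way, about 410 (0.6%) reached 50% or more in at least one test.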
TcHisRS: 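Histidine-tRNA ligase, Trypanosoma cruzi CL Brener (UniProt Q4DA54). Enzyme assay of histidyl-tRNA synthetase; the read-out is not stated. Compounds at 30 µM. The record gives no direction; compounds that gave an IC50 in retests scored well above the rest, so higher reads as stronger inhibition. About 69,000 compounds were tested under these conditions; 0.045% (about 31) showed 50% or more at least once.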
Leishmania in macrophages: 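Cell assay of Leishmania donovani living inside macrophages; the read-out is not stated. Concentration: 30 µM. Direction is inferred from retests: higher values go with stronger inhibition. Size under these conditions: about 69,000 compounds, about 1,000 of them at 50% or above in at least one test.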

Results are given as percent effect. How 0% and 100% were set is not recorded. Most values in the screen are low, and negative values occur. This is an unselected part of the compounds tested. Two or more numbers in one place are separate tests of the same structure; such repeats can differ widely.

{"smiles": "CC(C)NC(=O)CN1CCCNCC1", "ClpP1P2": -7.75, "PfKRS1": 2.103, "MtTrpRS": 1.537, "LiHisRS": 16.85, "TcHisRS": 8.808, "Leishmania in macrophages": 37.81}
{"smiles": "C/C(NC(=O)c1cccs1)=C1\\C(=O)C[C@@H]2[C@H]1C2(C)C", "ClpP1P2": 26.63, "PfKRS1": 0.4119, "MtTrpRS": -0.4531, "LiHisRS": 7.692, "TcHisRS": -1.98}
{"smiles": "COC(=O)C(c1cc(F)ccc1F)N(C)C(=O)c1cnc(C)cn1", "stereo": "stereo not drawn", "ClpP1P2": 3.822, "PfKRS1": -0.06888, "MtTrpRS": 6.2, "LiHisRS": 12.28, "TcHisRS": 3.725, "Leishmania in macrophages": 20.53}
{"smiles": "CCc1nc(CN2CCCN(C(=O)CCCOC)CC2)cs1", "ClpP1P2": -11.68, "PfKRS1": 0.3234, "MtTrpRS": 0.9085, "LiHisRS": 14.29, "TcHisRS": 3.458, "Leishmania in macrophages": 10.02}
{"smiles": "Cc1nc(C(C)(C)NCc2nnc(C(C)C)o2)sc1C", "ClpP1P2": -8.762, "PfKRS1": -2.287, "MtTrpRS": -2.427, "LiHisRS": 6.667, "TcHisRS": 5.882, "Leishmania in macrophages": 0.6047}
{"smiles": "CC(C)N1CCCN(c2nc(-c3cccnc3)nc3c2cnn3C)CC1", "ClpP1P2": 2.266, "PfKRS1": 4.321, "MtTrpRS": -1.424, "LiHisRS": 11.5, "TcHisRS": 0.8, "Leishmania in macrophages": 93.98}
{"smiles": "Cc1nnc2n1CCN(C(C(=O)NC1CC1)c1ccccc1)C2", "stereo": "stereo not drawn", "ClpP1P2": 9.933, "PfKRS1": 1.594, "MtTrpRS": 1.114, "LiHisRS": 0, "TcHisRS": 3.053, "Leishmania in macrophages": 31.92}
{"smiles": "Cc1nc(CO[C@H]2CN(Cc3cccs3)[C@@H]3COC[C@H]23)cs1", "ClpP1P2": -20.62, "PfKRS1": 0.7673, "MtTrpRS": -5.405, "LiHisRS": 8.065, "TcHisRS": -3.509}
{"smiles": "CC(C1CCN(Cc2c(Cl)ccc(O)c2Cl)CC1)N1CCN(C)CC1", "stereo": "stereo not drawn", "ClpP1P2": -11.08, "PfKRS1": 3.742, "MtTrpRS": -3.069, "LiHisRS": 20.51, "TcHisRS": 8.108, "Leishmania in macrophages": 30.89}
{"smiles": "Cc1nn(C)cc1-c1nn2c(C(F)(F)F)nnc2s1", "ClpP1P2": -4.186, "PfKRS1": -2.105, "MtTrpRS": 3.172, "LiHisRS": 16.48, "TcHisRS": 4.95, "Leishmania in macrophages": -22.99}
{"smiles": "CN1CCCCC1Cc1nc(Cc2cccc(F)c2)no1", "stereo": "stereo not drawn", "ClpP1P2": -13.83, "PfKRS1": 0.5613, "MtTrpRS": -9.513, "LiHisRS": 8.772, "TcHisRS": 0, "Leishmania in macrophages": 10.84}
{"smiles": "CNCC[C@H]1CC(C)(C)Oc2ccc(C)cc21", "ClpP1P2": 6.211, "PfKRS1": 7.021, "LiHisRS": 17.14, "TcHisRS": 13.56, "Leishmania in macrophages": "18.35 and 6.287"}
{"smiles": "CS(=O)(=O)c1nccn1Cc1ccc(F)cc1Cl", "ClpP1P2": -8.791, "PfKRS1": 3.268, "MtTrpRS": 0.7802, "LiHisRS": 2.74, "TcHisRS": 3.175, "Leishmania in macrophages": -64.03}
{"smiles": "[H][C@@]12CCN(C(=O)Cc3cccc(O)c3)C[C@]1([H])[C@@H](c1ccccc1)CN2C", "Leishmania in macrophages": -29.08}
{"smiles": "CC(=O)N1CCC2(C1)C(=O)N(CC1CC1)c1ccccc12", "stereo": "stereo not drawn", "ClpP1P2": -9.952, "PfKRS1": 1.702, "MtTrpRS": -9.448, "LiHisRS": 0, "TcHisRS": 0, "Leishmania in macrophages": 3.212}
{"smiles": "Cn1nnc2c1C(COCc1cccnc1)CN(Cc1ccoc1)C2", "stereo": "stereo not drawn", "ClpP1P2": 4.746, "PfKRS1": 0.08163, "MtTrpRS": 1.046, "LiHisRS": 9.091, "TcHisRS": 5.785}
{"smiles": "NC(=O)C1CCN(C(=O)Cn2nc(-c3ccccc3)oc2=O)C1", "stereo": "stereo not drawn", "ClpP1P2": -11.1, "PfKRS1": 3.633, "MtTrpRS": -1.74, "LiHisRS": 21.7, "TcHisRS": 0.8368, "Leishmania in macrophages": 23.76}
{"smiles": "Cc1ccc(F)c(C(=O)N2CCN(S(C)(=O)=O)[C@@H](C)C2)c1", "ClpP1P2": -2.616, "PfKRS1": 0.5448, "MtTrpRS": -0.3564, "LiHisRS": 3.846, "TcHisRS": 0, "Leishmania in macrophages": -3.258}
{"smiles": "O=C(NC1CCC1)[C@H]1C[C@@H]2CN(C(=O)Nc3ccc(F)cc3)C[C@H]1O2", "ClpP1P2": 6.59, "PfKRS1": 0.2058, "MtTrpRS": 0.4149, "LiHisRS": 20.51, "TcHisRS": 3.659}
{"smiles": "CCOC(=O)C1CCN(C(=O)CN2CCCC2c2cc(C)no2)CC1", "stereo": "stereo not drawn", "ClpP1P2": -4.277, "PfKRS1": 5.657, "MtTrpRS": 1.791, "LiHisRS": 3.896, "TcHisRS": 1.478, "Leishmania in macrophages": 21.6}
{"smiles": "Cc1ccc(OCCCNC(=O)C(C)Sc2nncn2C)cc1", "stereo": "stereo not drawn", "ClpP1P2": 1.556, "PfKRS1": 4.259, "MtTrpRS": -5.456, "LiHisRS": 12.82, "TcHisRS": 3.448, "Leishmania in macrophages": -1.196}
{"smiles": "CCN(CC)c1nc2sc(C(=O)N3CCNC(=O)C3)cc2s1", "ClpP1P2": -153.2, "PfKRS1": 5.909, "MtTrpRS": -0.4082, "LiHisRS": 42.48, "TcHisRS": 1.786, "Leishmania in macrophages": 8.924}
{"smiles": "O=C(O)C(F)(F)F.O=C(O)C(F)(F)F.[H][C@@]12C[C@@H](Oc3cncnc3)CN1CCN(Cc1ccccn1)C2", "Leishmania in macrophages": 2.199}

2 of the entries, repeated:

SMILES,ClpP1P2,PfKRS1,MtTrpRS,LiHisRS,TcHisRS,Leishmania in macrophages
CC(C1CCN(Cc2c(Cl)ccc(O)c2Cl)CC1)N1CCN(C)CC1 (stereo not drawn),-11.08,3.742,-3.069,20.51,8.108,30.89
Cc1nn(C)cc1-c1nn2c(C(F)(F)F)nnc2s1,-4.186,-2.105,3.172,16.48,4.95,-22.99

The values are deposited in ChEMBL (CHEMBL3988442, “University of Dundee, Small-Polar-MMV Screening Library” (2021)).